This is an account of results in paper doi:10.1101/2025.11.02.686180.

The exact form of at least one protein or probe is not confirmed. Negatives hold for the conditions tested.

The test system of the series is hemoglobin (Hb). In words: competition. As to conditions: 0.1 ng/mL Hb, signal near blank; 3' C3 spacer.

Take “CGCTTACGACAATATTCCTTAGGGGCACCGCTACATTGACACATCCAGC [N9-Apt]”: the binding result is listed as “no binding”.
